No constants are given. Whether binding was seen depends on the method and setting. A result given as binding can be weak or reduced; the word gives no strength.
Biological target: cynomolgus monkey PTK-7 (cynomolgus monkey)
Assay: SPR (cross-species binding); values not given

B1: Ab1 (antibody, human IgG1, kappa, L234A L235A, V domains shown)
VH: EVQLVESGGGLVKPGGSLRLSCAASGFTFSSYIMNWVRQAPGKGLEWVSSISSSSTFIYYADSVKGRFTISRDNAKNSLYLQMNSLRAEDTAVYYCAKGFDYWGQGTLVTVSS
VL: DIQLTQSPSFLSASVGDRVTITCRASQDISSYLVWYQQKPGKAPKLLIYAASTLQSGVPSRFSGSGSGTEFTLTISSLQPEDFATYYCQQLNTYPRTFGQGTKVEIKR
  binding: binds
